# Test results: PubChem BioAssay AID588346 (National Center for Advancing Translational Sciences (NCATS), 2011)
# Inconclusive means that the source gave no clear call. Such entries were picked first, then a sample of the others. Potencies beside an inconclusive call are fits to weak or partial responses and may not hold up. Activity calls are given as the source filed them. The call rests on the fitted dose curve; in most records, active means well fitted curve in the direction sought with a large enough effect; inconclusive means small, poorly fitted or top-dose-only effect, or another doubt; inactive means no such curve, though single readings can be large or run the other way.
# Test: qHTS Assay for Inhibitors of Histone Lysine Methyltransferase G9a: Hit Confirmation in b-rIgG Counterscreen
# Conditions: AlphaScreen b-rIgG bead counterscreen, signal interference; activity change, negative = inhibition: at 55.7 µM (top of the series)
# Source text: Methylated lysines, on the N-terminal tails of histone proteins serve as epigenetic markers to recruit factors that can then modify local chromatin structure to lead to functional consequences. G9a and other members of the SUV39 family of the SET domain-containing superfamily of histone lysine methyltransferases (HMT) have been identified to specifically methylate Lys9 of histone H3 (H3K9). G9a catalyzes the mono- and di-methylation of H3K9 in mammalian euchromatic regions, where the resulting H3K9me2 is indicative of transcriptional repression. […] The inhibition of G9a will result in transcriptional activation and work synergistically with DNA methyltransferase and histone deacetylase inhibitors, to kill cancer cells. This qHTS assay for identification of G9a inhibitors is a chemiluminescence based AlphaScreen (PerkinElmer). Methylation of biotinylated-histone peptide is measured through specific antibody-based detection, in conjunction with streptavidin-coated donor and anti-IgG antibody-coated acceptor beads. The method is particularly well suited for detection of inhibitors acting by the desired histone peptide competitive mechanism and is applicable to testing other HMTs. Although AlphaScreen has significant advantages with its utility in a variety of epigenetic target assays, the primary screening data provided in this deposition should be used with caution due to the prevalence of screening artifacts. Because an AlphaScreen counterscreen is highly recommended to be run against any putative actives to eliminate non specific artifacts, this assay was used as a counterscreen. Quinn et al. A chemiluminescence-based method for identification of histone lysine methyltransferase inhibitors. Mol Biosyst 6(5): 782-8. 2010. PMID: 20567762 [2] Baell,Holloway. New substructure filters for removal of pan assay interference compounds (PAINS) from screening libraries and for their exclusion in bioassays. J Med Chem. 53(7):2719-40. 2010. PMID: 20131845 NIH Chemical Genomics Center [NCGC] NIH Molecular Libraries Probe Production Network [MLPCN] MLPCN Grant: MH084681-02 Assay Submitter (PI): Structural Genomic Consortium - Toronto, Peter Brown
# Biotinylated rabbit-IgG (b-rIgG) (Santa Cruz Biotechnology, Inc., Santa Cruz, CA) was added to 1,536-well plates in a 3 uL dispense. Compounds were added in a 23 nL pin-transfer step, and plates were incubated at room temperature for 15 min. Streptavidin-coated donor and anti-rIgG acceptor AlphaScreen beads were added (1 uL) for final concentrations of 20 ug/mL each bead and 1 nM b-rIgG, and plates read on the Envision after a 15 min incubation at room temperature in the dark.
SMILES,Potency,"activity change, negative = inhibition"
CN(C)S(=O)(=O)c1cccc(NC(=S)N/N=C/c2ccco2)c1,"inconclusive: 20 µM [inhibitor, partial curve]",–
OCc1ccc(-c2nn(Cc3ccccc3)c3ccccc23)o1,"inconclusive: 25.1 µM [inhibitor, partial curve]",–
COc1cc2nc(CCNCc3ccccc3)nc(NC3CCN(C)CC3)c2cc1OC,"inconclusive: 32.4 µM [inhibitor, partial curve, poor fit]",–
CCOC(=O)Nc1ccc(NCc2ccc(F)cc2)nc1N,"inconclusive: 63.1 µM [inhibitor, partial curve]",–
C/C=C/c1ccc(OCC(=O)OCC(=O)NC2CC2)c(OC)c1,inactive,–
COc1cc2c(NC3CCN(C)CC3)nc(N3CCCN(C)CC3)nc2cc1OCc1ccccc1,"inconclusive: 22.9 µM [inhibitor, partial curve]",–
COc1cc2c(cc1O)CC[C@@H]1[C@@H]2CC[C@]2(C)[C@@H](O)CC[C@@H]12,"inconclusive: 28.2 µM [inhibitor, partial curve]",–
COc1ccc2c(C)cc(SCC(=O)N(C)C3CCS(=O)(=O)C3)nc2c1 (centres undefined),inactive,–
CCc1ccc(NC(=O)C2CCC(CNS(=O)(=O)c3ccc4c(c3)CC(C)N4C(C)=O)CC2)cc1 (centres undefined),–,inconclusive: -12.3% [inhibitor]
Oc1ccc(Br)cc1C=Nc1ccc2c3c(cccc13)CC2,inactive,–
S=C(Nc1ccccc1)c1ccccn1,"inconclusive: 20 µM [inhibitor, partial curve]",–
CSc1ccc2c(c1)N(CCC1CCCCN1C)c1ccccc1S2 (centres undefined),"inconclusive: 15.8 µM [inhibitor, partial curve]",–
COc1cc2nc(NC3CCN(C)CC3)nc(N3CCCN(C)CC3)c2cc1OC,"inconclusive: 28.9 µM [inhibitor, partial curve, poor fit]",–
CCc1nnc(NC(=O)c2cccc(C(=O)Nc3nnc(CC)s3)n2)s1,inactive,–
CCN(CC)CCCNC(=O)CSc1c2c(nc3cc(Cl)ccc13)CCCC2,"inconclusive: 25.1 µM [inhibitor, single point]",–
CCN1CCc2nc(N)oc2CC1,inactive,–
C(=N\Nc1nc(-c2ccccn2)nc2ccccc12)/c1ccccc1,"inconclusive: 11.2 µM [inhibitor, full curve]",–
O=C1NC(=O)c2cc(Nc3ccccc3)c(Nc3ccccc3)cc21,"inconclusive: 22.4 µM [inhibitor, partial curve]",–
O=C(NN1C(=O)c2ccccc2NC1c1ccc([N+](=O)[O-])o1)c1ccc([N+](=O)[O-])cc1 (centres undefined),inactive,–

# Some of the entries so far, with bars between the fields:
SMILES | Potency | activity change, negative = inhibition
S=C(Nc1ccccc1)c1ccccn1 | inconclusive: 20 µM [inhibitor, partial curve] | –
CSc1ccc2c(c1)N(CCC1CCCCN1C)c1ccccc1S2 (centres undefined) | inconclusive: 15.8 µM [inhibitor, partial curve] | –
